These are yes or no findings as the source states them, for the method shown. In cells and extracts the contact can be indirect. Some binding calls cover weakened binding; strength is not graded here.
B1: 11β-hydroxysteroid dehydrogenase-2 (enzyme, UniProt P80365 1-405)
chain: MERWPWPSGGAWLLVAARALLQLLRSDLRLGRPLLAALALLAALDWLCQRLLPPPAALAVLAAAGWIALSRLARPQRLPVATRAVLITGCDSGFGKETAKKLDSMGFTVLATVLELNSPGAIELRTCCSPRLRLLQMDLTKPGDISRVLEFTKAHTTSTGLWGLVNNAGHNEVVADAELSPVATFRSCMEVNFFGALELTKGLLPLLRSSRGRIVTVGSPAGDMPYPCLGAYGTSKAAVALLMDTFSCELLPWGVKVSIIQPGCFKTESVRNVGQWEKRKQLLLANLPQELLQAYGKDYIEHLHGQFLHSLRLAMSDLTPVVDAITDALLAARPRRRYYPGQGLGLMYFIHYYLPEGLRRRFLQAFFISHCLPRALQPGQPGTTPPQDAAQDPNLSPGPSPAVAR

Protein sequences, listed by entry. Tags and fused reporters are not part of them.
UniProt Q9UKV5: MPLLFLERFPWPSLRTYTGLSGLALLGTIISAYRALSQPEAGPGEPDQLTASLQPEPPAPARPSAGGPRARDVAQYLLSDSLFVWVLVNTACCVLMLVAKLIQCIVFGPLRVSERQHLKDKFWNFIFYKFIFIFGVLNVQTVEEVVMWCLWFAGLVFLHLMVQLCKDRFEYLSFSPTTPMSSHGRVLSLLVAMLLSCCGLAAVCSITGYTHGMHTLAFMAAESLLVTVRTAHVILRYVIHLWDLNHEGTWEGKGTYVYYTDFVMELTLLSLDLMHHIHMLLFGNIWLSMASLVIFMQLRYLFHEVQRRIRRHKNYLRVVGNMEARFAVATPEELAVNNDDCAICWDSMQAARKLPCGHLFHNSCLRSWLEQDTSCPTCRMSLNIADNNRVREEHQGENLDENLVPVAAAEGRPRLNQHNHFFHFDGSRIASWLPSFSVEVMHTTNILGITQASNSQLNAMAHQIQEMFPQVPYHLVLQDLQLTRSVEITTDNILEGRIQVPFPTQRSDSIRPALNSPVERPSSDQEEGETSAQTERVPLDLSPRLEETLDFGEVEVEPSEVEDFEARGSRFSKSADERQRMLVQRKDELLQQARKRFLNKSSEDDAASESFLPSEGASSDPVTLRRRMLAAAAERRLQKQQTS

Experiments:
[1] = molecular target: T1, 11β-hydroxysteroid dehydrogenase-2 (human (endogenous in LAPC4)) (UniProt P80365); experiment: co-IP; endogenous proteins in LAPC4 lysate (Pierce IP Lysis/Wash Buffer, protease inhibitors); 1-2 mg protein incubated with rabbit IgG, 11β-HSD2 antibody or AMFR antibody overnight at 4°C; immunoblot for 11β-HSD2 or AMFR
T1 sequence: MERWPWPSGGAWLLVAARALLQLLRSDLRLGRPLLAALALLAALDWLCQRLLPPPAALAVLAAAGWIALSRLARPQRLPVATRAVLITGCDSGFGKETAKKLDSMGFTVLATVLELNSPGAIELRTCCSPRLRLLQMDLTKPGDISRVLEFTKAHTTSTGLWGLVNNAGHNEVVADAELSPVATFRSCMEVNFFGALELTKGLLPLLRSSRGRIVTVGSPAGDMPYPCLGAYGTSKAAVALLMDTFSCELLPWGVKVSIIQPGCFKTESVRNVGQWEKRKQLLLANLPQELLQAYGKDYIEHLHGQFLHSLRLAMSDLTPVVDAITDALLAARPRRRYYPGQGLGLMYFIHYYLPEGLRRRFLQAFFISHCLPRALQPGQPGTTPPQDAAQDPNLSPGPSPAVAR

[2] = molecular target: autocrine mobility factor receptor (human (endogenous in LAPC4)) (UniProt Q9UKV5); experiment: as above

Molecule	binding [1]	binding [2]
autocrine mobility factor receptor (from UniProt Q9UKV5 1-643) (enzyme)	binds	–
B1	–	binds

From PMC5305204
